According to PubChem BioAssay AID1347076 (National Center for Advancing Translational Sciences (NCATS), 2019):
The campaign covered roughly 400,000 compounds. About 13,000 (3.2%) were called active. Inconclusive results, whose numbers are uncertain, are shown with a selection of clear calls. The call rests on the fitted dose curve; in most records, active means well fitted cell-killing curve with a large enough effect; inconclusive means small, poorly fitted or top-dose-only effect, or effect the other way; inactive means flat fitted curve, though single readings scatter. A potency beside an inconclusive call is a rough fit, not a confirmed value.

Assay: qHTS assay for MDR1-selective chemotherapeutics: Primary screen using the drug-selected MDR subline cells KB-V1; further: nearly all actives have a fitted effect of over 60% in size
Conditions: KB-V1 MDR cells viability, CellTiter-Glo, 72 h; activity change, negative = cytotoxicity: at 46.1 µM (top of the series)
Summary of the method: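 Cells of the MDR subline KB-V1 are plated, dosed with compound at multiple concentrations, and incubated 72 h at 37 degrees C; CellTiter-Glo is then added and luminescence read after 10 min.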
On the % scale 0 is the no-effect control and ±100 the full control effect; potency means the concentration at half of the fitted maximal effect.

| SMILES | Potency | activity change, negative = cytotoxicity |
| --- | --- | --- |
| N/C(Cc1ccc(Cl)c(Cl)c1)=N\OC(=O)c1ccc(Br)o1 | inconclusive: 1.84 µM [rising, full curve, poor fit] | – |
| Fc1ccc(Cc2cn3cc(-c4ccc(Cl)cc4)nc3s2)cc1 | inconclusive: 29.1 µM [rising, partial curve, poor fit] | – |
| C[C@@H](NC(=O)c1ncn2c1c(=O)[nH]c1cccnc12)c1ccccc1 | inconclusive: 18.4 µM [cytotoxic, single point] | – |
| CCOC(=O)CSc1nc2ccccc2c(=O)n1CCN1CCOCC1 | active: 13 µM | – |
| CCN(CC)c1ccc([N+](=O)[O-])cc1/C=N/NC(=O)CC#N | inconclusive: 23.1 µM [cytotoxic, partial curve, poor fit] | – |
| CC(C)c1nc2c(c(=O)c3ccccc3n2C)c(=O)n1CCc1ccccc1 | inconclusive: 9.2 µM [cytotoxic, partial curve] | – |
| Cc1nnsc1C(=O)Nc1ccc(S(=O)(=O)N2CCCCC2)cc1 | inactive | – |
| COc1cccc(N2CCN(c3nc(-c4ccccc4C)cc(=O)[nH]3)CC2)c1 | inconclusive: 29.1 µM [cytotoxic, single point] | – |
| CCOC(=O)CCCNC(=O)CN1CCC(c2nc3ccccc3s2)CC1 | inconclusive: 29.1 µM [cytotoxic, single point] | – |
| CC(C)OCCCNC(=O)c1cn(C)c2ccc(S(=O)(=O)N3CCCC3)cc2c1=O | inconclusive: 29.1 µM [rising, single point] | – |
| COCCNC(=S)N1CCC(NC(=O)C23CC4CC(CC(C4)C2)C3)CC1 | inconclusive: 20.6 µM [cytotoxic, single point] | – |
| COc1cccc(NC(=O)N2CCN(c3nc(-c4cccc(OC)c4)cs3)CC2)c1 | active: 16.4 µM | – |
| OC1(c2ccc(F)cc2)CSC(=Nc2cccnc2)N1Cc1ccco1 (configuration not stated) | inconclusive: 11.6 µM [cytotoxic, partial curve] | – |
| Nc1ncnc(N)c1NC(=O)c1cc(Cl)c(OCc2ccccc2)c(Cl)c1 | inactive | – |
| NC(=O)c1ncn([C@@H]2O[C@H](CNCc3cccc(OC4CCCC4)c3)[C@@H](O)[C@H]2O)n1 | inconclusive: 23.1 µM [rising, single point] | – |
| O=C(NNc1ccccc1)C(=O)NNc1ccccc1 | inconclusive: 20.6 µM [cytotoxic, partial curve, poor fit] | – |
| Cn1c(CNC(=O)CCNC(=O)c2ccccc2)cc(=O)n(C)c1=O | inconclusive: 16.4 µM [rising, partial curve] | – |
| FC(F)(F)c1nc(-c2ccncc2)ncc1-c1nnnn1-c1ccccc1 | active: 20.6 µM | – |
| O=C(OC1CCOC1=O)c1cc(-c2cccs2)nc2ccccc12 (configuration not stated) | inactive | – |
| COc1ccc(C(=O)NCC(c2ccc3c(c2)OCO3)N2CCN(c3ccc(OC)cc3)CC2)cc1 (configuration not stated) | inactive | – |
| COc1cc(/C=C2\N=C(c3c(-c4ccccc4)noc3C)OC2=O)ccc1OC(C)=O | inconclusive: 29.1 µM [rising, single point] | – |
| CCOc1ccc(CCNC(=O)c2cccc(-n3c(C)nc4cccnc43)c2)cc1 | inconclusive: 4.11 µM [cytotoxic, full curve] | – |
| COC(=O)c1c(N)n(-c2ccc(OC)c(Cl)c2)c2nc3ccccc3nc12 | inactive | – |

Random excerpt: two compounds from above, in no set order.

| SMILES | Potency | activity change, negative = cytotoxicity |
| --- | --- | --- |
| NC(=O)c1ncn([C@@H]2O[C@H](CNCc3cccc(OC4CCCC4)c3)[C@@H](O)[C@H]2O)n1 | inconclusive: 23.1 µM [rising, single point] | – |
| O=C(OC1CCOC1=O)c1cc(-c2cccs2)nc2ccccc12 (configuration not stated) | inactive | – |

(more compounds)

| SMILES | Potency | activity change, negative = cytotoxicity |
| --- | --- | --- |
| COc1cc(OC)c(C(=O)OCC(=O)Nc2ccccc2Cl)cc1OC | inconclusive: 4.11 µM [cytotoxic, full curve] | – |
| O=C(NNC(=O)c1ccncc1)Nc1ccc(N=Nc2ccccc2)cc1 | inconclusive: 23.1 µM [rising, single point] | – |
| COc1ccccc1C(=O)C1CCCN(C(=O)c2cccc(-n3cccn3)c2)C1 (configuration not stated) | inconclusive: 8.2 µM [cytotoxic, partial curve] | – |
| Cn1c(C(=O)OC(C(=O)NC2CCCC2)c2cccnc2)cc2sccc21 (configuration not stated) | inconclusive: 16.4 µM [cytotoxic, single point] | – |
| O=C1Nc2ccccc2N=C(c2ccc3c(c2)OCO3)C1N(C(=O)c1ccnc2ccccc12)c1ccccc1 (configuration not stated) | inconclusive: 29.1 µM [cytotoxic, single point] | – |
| CCc1ccc(NC(=O)c2cccc(NC3=NC4CS(=O)(=O)CC4S3)c2)cc1 (configuration not stated) | inconclusive: 0.206 µM [rising, full curve, poor fit] | – |
| CCN(CC)C(=O)c1sc2c(c1C)c(=O)n(-c1ccc(Cl)c(Cl)c1)c(=O)n2CC(=O)Nc1cccc(OC)c1 | inactive | – |
| Cc1nn(CC(=O)Nc2ccc(Cl)cc2Cl)c(=O)c2ccccc12 | inconclusive: 29.1 µM [rising, single point] | – |
| O=C(COc1ccc(Cl)cc1)Nc1ccc(C(=O)NCc2cccnc2)cc1 | inconclusive: 13 µM [cytotoxic, partial curve] | – |
| Cc1[nH]c2ccc(C(=O)NC3CCC(C)CC3)cc2c1C (configuration not stated) | inactive | – |
| Cc1ccc(C)c(CN2C(=O)c3ccccc3S(=O)c3ccc(C(=O)N4CCN(c5ccccn5)CC4)cc32)c1 (configuration not stated) | inconclusive: 10.3 µM [cytotoxic, partial curve, poor fit] | – |
| O=C(N/N=C/c1ccc([N+](=O)[O-])o1)c1cc(-c2ccc(-c3ccccc3)cc2)nc2ccccc12 | inactive | – |
| COc1ccc(Cn2c(=O)sc3ccccc32)cc1OC | active: 2.59 µM | – |
| C#CCSc1nc(Cc2ccc(Cl)cc2)nc2ccccc12 | active: 16.4 µM | – |
| O=C(O)C1CCN(C(=O)c2ccccc2N2C(=O)[C@@H]3Cc4c([nH]c5ccccc45)C(c4cccc(Cl)c4)N3C2=O)CC1 (some centres not stated) | inconclusive: 29.1 µM [rising, single point] | – |
| O=C1/C(=C/c2ccccc2F)SC(=S)N1CC(=O)N1CCCCC1c1cccnc1 (configuration not stated) | inactive | – |
| Cc1c(/C=N/NC(=O)CNc2ccccc2)c2ccccn2c1C(=O)c1ccccc1 | active: 3.66 µM | – |
| Nc1sc2c(c1C(=O)NCCc1ccccc1)CCCC2 | inconclusive: 14.6 µM [cytotoxic, single point] | – |
| COC(=O)C(NC(C)=O)(Nc1ccc(Br)cn1)C(F)(F)F (configuration not stated) | inconclusive: 16.4 µM [rising, single point] | – |
| C=CCC1NS(=O)(=O)O[C@H](CCCC)[C@@H]1O (some centres not stated) | – | inconclusive: -10.4% |
| O=C1C2=C(Nc3ccccc3SC2c2ccccc2C(F)(F)F)c2ccccc21 (configuration not stated) | inconclusive: 29.1 µM [cytotoxic, single point] | – |
| Cc1ccc(C)c(NC(=O)Cn2c(=O)ccc3cc(S(=O)(=O)N4CCCC4)ccc32)c1 | inconclusive: 16.4 µM [cytotoxic, single point] | – |
| COc1ccc(/C=N/OCC(=O)N2CC3(C)CC2CC(C)(C)C3)cc1OC (configuration not stated) | active: 16.4 µM | – |

| SMILES | Potency | activity change, negative = cytotoxicity |
| --- | --- | --- |
| CCCCCNC(=O)c1ccc2c(c1)nc(C)n2-c1cccc(C)c1 | inactive | – |
| O=C(CCn1c(=O)c2cccn2c2ccccc21)Nc1ccc(F)cc1 | inactive | – |
| O=C1CC(NC(=O)C(F)(F)F)=NN1c1ccccc1 | inconclusive: 16.4 µM [rising, single point] | – |
| COc1cc(S(=O)(=O)Nc2cccc(C)c2)ccc1NC(=O)c1cccnc1 | active: 20.6 µM | – |
| C(=C\c1c[nH]c2ccccc12)/c1cc[n+](C2CCCCC2)cc1 | inactive | – |
| COc1ccccc1CNCc1ccc(C)cc1 | inactive | – |
| COc1ccccc1C(=O)C1CCCN(C(=O)CN2CCCCC2=O)C1 (configuration not stated) | inactive | – |
| O=C(Nc1ccccc1N1CCN(c2ccccc2)CC1)c1ccccc1 | inconclusive: 14.6 µM [cytotoxic, partial curve, poor fit] | – |
| Cc1cccc(C(=O)N(Cc2nc3ccccc3c(=O)[nH]2)C2CCCCC2)c1 | inconclusive: 5.17 µM [cytotoxic, full curve] | – |
| COc1ccc(N(C)S(=O)(=O)c2cccc3cccnc23)c(OC)c1 | inconclusive: 11.6 µM [cytotoxic, partial curve, poor fit] | – |
| CC(C)(C)c1ccc(-c2csc(NNC3=NCCCCC3)n2)cc1 | inconclusive: 29.1 µM [cytotoxic, single point] | – |
| CN(C)c1ccc(C(=O)OCC(=O)Nc2cccc(S(=O)(=O)N3CCCC3)c2)cc1 | active: 16.4 µM | – |
| C[C@H](CO)N1C[C@H](C)[C@@H](CN(C)Cc2ccc(Cl)c(Cl)c2)Oc2c(NS(=O)(=O)c3ccc(F)cc3)cccc2C1=O | inconclusive: 16.4 µM [cytotoxic, single point] | – |
| Cc1c(NC(=S)NC(=O)c2ccc(COc3ccccc3)cc2)cccc1C(=O)O | inconclusive: 7.31 µM [rising, partial curve, poor fit] | – |
| COc1ccc(NC(=O)C2CCC(=O)N2C(=O)OCc2ccccc2)cc1 (configuration not stated) | inconclusive: 18.4 µM [rising, single point] | – |
| Nc1[nH]c(C(=O)c2ccccc2)c(-c2ccc(F)cc2)c1C(=O)NCc1ccccc1 | inactive | – |
| Cn1cc(C(=O)c2ccc(F)cc2)cc1-c1nc2ccccc2n1C | inconclusive: 29.1 µM [cytotoxic, single point] | – |
| O=C(NCc1cccc(F)c1)c1cccc(OC2CCN(C(=O)C3CC3)CC2)c1 | inconclusive: 20.6 µM [cytotoxic, single point] | – |
| OC(C1=CC(=Cc2ccncc2)c2ccccc21)c1ccncc1 (configuration not stated) | inconclusive: 7.31 µM [cytotoxic, partial curve, poor fit] | – |
| O=C(COc1cccc2c1CCN(Cc1ccccc1F)C2=O)N1CCCCC1 | inconclusive: 4.11 µM [cytotoxic, partial curve] | – |
| O=C(c1ccc(N2CCCC2=O)cc1)N1CCN(c2cccc(C(F)(F)F)c2)CC1 | inconclusive: 9.2 µM [cytotoxic, partial curve] | – |

A few values from above:
O=C1Nc2ccccc2N=C(c2ccc3c(c2)OCO3)C1N(C(=O)c1ccnc2ccccc12)c1ccccc1 (configuration not stated) | Potency: inconclusive: 29.1 µM [cytotoxic, single point]
COCCNC(=S)N1CCC(NC(=O)C23CC4CC(CC(C4)C2)C3)CC1 | Potency: inconclusive: 20.6 µM [cytotoxic, single point]
